# Measurements reported in PubChem BioAssay AID652272 (Drosophila RNAi Screening Center, 2013)
# Screen: 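Genome-wide knock-down search for components of Hedgehog signalling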 (primary screen)
# System: Drosophila clone 8 (Cl8) cells
# Reagent: long dsRNA against Drosophila genes
# Measurement: 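Firefly light from a Hedgehog-responsive ptc promoter reporter and Renilla reference light, both read on a plate reader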
# Reading the numbers: firefly Hh reporter signal: higher = more ptc reporter light; Renilla reference signal: higher = more Renilla control light
# Active means: 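Called a hit if the two-replicate mean z-score lies below -2 or above +3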
# Meaning of the calls: active = hit: reporter lowered or raised; inactive = not a hit
# In all, the deposit lists about 21,000 reagents; this is an unselected part of those with a known target gene and a result. Of all reagents, 503 (2.4%) got an active call. 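Raw plate light values, not normalised; calls rest on replicate z-scores that were not deposited; hits include reporter decreases as well as increases.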 Reagents against one gene are numbered here. Names joined by + are all predicted targets of the reagent. The record does not give: the amount of reagent, the time to read-out.
gene,reagent no.,"firefly Hh reporter signal, replicate 1","firefly Hh reporter signal, replicate 2","firefly Hh reporter signal, replicate 3","Renilla reference signal, replicate 1","Renilla reference signal, replicate 2",call
CG15711,1,71594,65328,,1994,4034,inactive
Rad17,1,51184,86752,,1796,2276,inactive
CG12209,1,63228,36077,,1632,3096,inactive
Pfk,1,59677,47668,,3344,1779,inactive
CG14419,1,1.14e5,3.16e5,,4796,11181,inactive
Mef2,1,56309,48544,,3434,2384,inactive
Cpr76Bd,1,1.19e5,1.37e5,,4233,3845,inactive
Chpf,1,78118,2.63e5,,2138,9122,inactive
Chpf,2,89249,65409,,1849,1766,inactive
CG11970,1,1.17e5,83440,,3594,2348,inactive
Clp,1,86387,91619,,2329,2149,inactive
CG3062,1,77925,1.54e5,,2768,6373,inactive
Uba3,1,71591,75734,,3760,3155,inactive
Mal-B2,1,5.97e5,77019,,3680,3680,inactive
Gr68a,1,70732,58913,64717,4577,4600,inactive
tho2,1,53772,55139,,3152,3016,inactive
drn + CG43675,1,1.32e5,1.07e5,,4352,2901,inactive
SNRPG,1,88019,1.38e5,,3588,6211,inactive
Jhbp15,1,7.01e5,93449,,34768,2697,inactive
Meics,1,58954,44944,41158,7093,2134,inactive
CG3306,1,96054,63997,,3955,2708,inactive
CG12126,1,1.13e5,63324,,3062,4461,inactive
Rpn8,1,27507,28372,,1238,3818,active
sunz,1,78645,1.14e5,,2674,3193,inactive
CR4575,1,93331,2.94e5,,2485,10006,inactive
CG13029,1,1.80e5,,,1960,5341,inactive
CG7394,1,77811,66474,66120,5893,4155,inactive
Tcs5,1,45572,43737,,5744,3904,inactive
Theg,1,1.09e5,76064,,4311,2753,inactive
AstA-R2,1,91480,89242,,2553,2476,inactive
glob1,1,1.27e5,78012,,4144,3177,inactive
lncRNA:CR40629,1,6.02e5,2.03e5,,28865,3464,inactive
Lrpprc2,1,81085,93431,,1613,3241,inactive
Vps53,1,83152,86472,,3666,3242,inactive
CG13876,1,71573,36804,,2330,2732,inactive
CG42557 + CG42558,1,57667,3.27e5,,13472,7460,inactive
CG42557 + CG42558,2,81072,54384,,2145,1888,inactive
CG31954,1,77770,47008,,3977,2090,inactive
Pos,1,71381,1.85e5,,2466,6765,inactive
Tsp74F,1,1.75e5,,,2629,7472,inactive
CG18284,1,1.29e5,1.28e5,,5162,4768,inactive
CG18284,2,5.59e5,2.37e5,,33481,5700,inactive
CG4676,1,99194,66864,,2923,5401,inactive
CG13639,1,6.53e5,1.17e5,,32551,3446,inactive
CG1299,1,91510,57325,,2778,4195,inactive
ND-49,1,1.00e5,1.63e5,,3658,5733,inactive
Prosbeta6,1,33168,30730,,2563,1685,active
CG2061,1,91328,80376,,2314,2145,inactive
Mis12,1,30298,42002,,2609,2976,inactive
CG10748,1,31683,48242,40506,4832,3034,inactive
RpL14,1,12521,14613,,4803,1971,active
Polr2M,1,5.79e5,72546,,29064,1997,inactive
nom,1,67712,95585,,2545,4951,inactive
CG5561,1,1.65e5,1.17e5,,3723,2762,inactive
CG4896,1,68144,37193,,2713,1616,inactive
CG31055,1,39106,2.64e5,,11202,5956,inactive
CG5757,1,1.55e5,1.14e5,,7399,5400,inactive
Nepl15,1,95489,76945,,4163,3325,inactive
CG9518,1,72340,1.61e5,,1856,6544,inactive
CG7368,1,59192,77575,3.97e5,5301,2280,inactive
wus,1,87171,75467,,1531,1846,inactive
CG8745,1,83008,55240,,2928,2101,inactive
CG8745,2,61459,76475,72432,7930,1384,inactive
Naxd,1,72682,46073,,2969,1555,inactive
CG3635,1,68326,43050,,1900,4004,inactive
CG42741,1,1.08e5,77632,,2240,7056,inactive
Gart,1,1.06e5,81914,,2456,6992,inactive
CG11906,1,90025,69972,,2196,5539,inactive
Trm7-34,1,6.23e5,1.05e5,,29709,520,inactive
Nnf1a,1,60080,41267,,2176,2939,inactive
AANATL2,1,86116,31270,,2385,3545,inactive
CG14424,1,94811,2.21e5,,3667,7643,inactive
dnc,1,1.00e5,84146,,3463,3408,inactive
dnc,2,77253,1.40e5,,2880,5399,inactive
dnc,3,86583,2.39e5,,3601,9210,inactive
dnc,4,1.15e5,3.52e5,,4448,12736,inactive
dnc,5,97288,2.84e5,,2773,11432,inactive
